In paper PMC4831018:
No constants are given. Whether binding was seen depends on the method and setting. In cells and extracts the contact can be indirect. A yes stands for co-enrichment or nearness to the bait. Other partners may have been found.

The chains behind the UniProt entries cited, without tags or fusion partners. Where a name states a change or a piece, a line headed by the entry shows the natural chain unless it says otherwise.
UniProt B9PY91: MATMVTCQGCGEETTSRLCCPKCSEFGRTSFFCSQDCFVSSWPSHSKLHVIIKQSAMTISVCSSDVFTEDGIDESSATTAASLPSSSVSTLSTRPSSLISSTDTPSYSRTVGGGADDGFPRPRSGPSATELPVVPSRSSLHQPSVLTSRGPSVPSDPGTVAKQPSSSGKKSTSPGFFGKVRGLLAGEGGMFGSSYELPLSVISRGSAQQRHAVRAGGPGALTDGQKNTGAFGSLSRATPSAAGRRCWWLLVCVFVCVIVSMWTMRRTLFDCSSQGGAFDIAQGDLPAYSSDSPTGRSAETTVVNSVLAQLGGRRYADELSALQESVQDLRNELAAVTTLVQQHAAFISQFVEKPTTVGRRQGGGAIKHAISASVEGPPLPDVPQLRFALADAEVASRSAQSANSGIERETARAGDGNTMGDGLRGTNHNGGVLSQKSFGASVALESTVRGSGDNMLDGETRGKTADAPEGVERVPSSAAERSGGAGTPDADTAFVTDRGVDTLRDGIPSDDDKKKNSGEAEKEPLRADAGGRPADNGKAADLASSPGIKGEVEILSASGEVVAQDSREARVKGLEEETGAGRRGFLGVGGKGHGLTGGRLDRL
UniProt A0A125YRI3: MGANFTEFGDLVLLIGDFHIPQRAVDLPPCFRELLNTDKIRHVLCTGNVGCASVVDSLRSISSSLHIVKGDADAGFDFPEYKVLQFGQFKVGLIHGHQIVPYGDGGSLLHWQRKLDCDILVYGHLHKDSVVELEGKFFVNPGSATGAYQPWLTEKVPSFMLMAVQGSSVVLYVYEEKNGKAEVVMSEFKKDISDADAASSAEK

B1: Rab11B (protein, UniProt Q7Z158 1-226)
chain: MAGGSEDYDHLYKVILVGDATVGKTHLLSRYIRGTLPKSPKATIGVEFATRTVPLAVGGTVKAQIWDTAGQERYRSITSAHYRRAVGALLVYDVTRKSTFLNASKWLEELRQNSEPDIVIMMVGNKLDLVEKDPTARDVPYELAAKFAQANGLYFSEASAVTAFNVKHIFEHLLQEIYNHRTQGEEFSGRANGADAYRDAQALGGVRLAANANMYGRNPQNLSCCG

How the values were obtained:
[1] = molecular target: TgHP12-cMyc (Toxoplasma gondii) (UniProt B9PY91); experiment: affinity purification with mass spectrometry; immunoprecipitate of TgHP12-cMyc (knock-in in iKoTgVps35 parasites) analysed by mass spectrometry
[2] = molecular target: T. gondii core retromer complex TgVps35–TgVps26–TgVps29 (Toxoplasma gondii); experiment: affinity purification with mass spectrometry; eluates of the anti-HA (TgVps35-HA, TgVps26-HA) and anti-cMyc (TgVps29-cMyc) immunoprecipitations analysed by nanoLC-MS/MS; hits common to at least two co-immunoprecipitations, absent in the control, at least two unique peptides

Molecule	binding [1]	binding [2]
TgVps29 (from UniProt A0A125YRI3)	binds	–
B1	–	binds
